# The other results are listed elsewhere or left out.
# Assays:
# Assay in all cases: glycan array binding signal (z-score within array); higher = stronger binding
# Details in all cases: glycan notation: IUPAC condensed, linker removed
# [1] = molecular target: GalNAc(b1-4)GlcNAc(b1-2)Man(a1-3)[GalNAc(b1-4)GlcNAc(b1-2)Man(a1-6)]Man(b1-4)GlcNAc(b1-4)GlcNAc
# Procedure, shortened: (§1)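 The binding signal is a Z-score computed within each array and averaged over linkers. Arrays of the same protein sequence at different concentrations or buffers were also averaged together. Data originate from 3228 arrays in the Consortium for Functional Glycomics database, kept only where the protein sequence was available.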
# [2] = molecular target: GalNAc(b1-4)GlcNAc(b1-3)GalNAc(b1-4)GlcNAc
# Procedure, shortened: as §1
# GalNAc(b1-4)GlcNAc6S = molecular target: GalNAc(b1-4)GlcNAc6S
# Procedure, shortened: as §1
# GalNAc(b1-6)GalNAc = molecular target: GalNAc(b1-6)GalNAc
# Procedure, shortened: as §1
# GalNAc3S(b1-4)GlcNAc = molecular target: GalNAc3S(b1-4)GlcNAc
# Procedure, shortened: as §1
# GalNAc3S(b1-4)GlcNAc3S = molecular target: GalNAc3S(b1-4)GlcNAc3S
# Procedure, shortened: as §1
# [3] = molecular target: GalNAc3S(b1-4)[Fuc(a1-3)]GlcNAc
# Procedure, shortened: as §1
# GalNAc4S6S(b1-4)GlcNAc = molecular target: GalNAc4S6S(b1-4)GlcNAc
# Procedure, shortened: as §1
# GalNAc6S(b1-4)GlcNAc = molecular target: GalNAc6S(b1-4)GlcNAc
# Procedure, shortened: as §1
# Glc(a1-4)Glc = molecular target: Glc(a1-4)Glc
# Procedure, shortened: as §1
# [4] = molecular target: Glc(a1-4)Glc(a1-4)Glc(a1-4)Glc
# Procedure, shortened: as §1
# Glc(a1-6)Glc(a1-6)Glc = molecular target: Glc(a1-6)Glc(a1-6)Glc
# Procedure, shortened: as §1
# [5] = molecular target: Glc(a1-6)Glc(a1-6)Glc(a1-6)Glc
# Procedure, shortened: as §1
# Glc(b1-4)Glc = molecular target: Glc(b1-4)Glc
# Procedure, shortened: as §1
# Glc(b1-6)Glc = molecular target: Glc(b1-6)Glc
# Procedure, shortened: as §1
# GlcA(b1-3)Gal = molecular target: GlcA(b1-3)Gal
# Procedure, shortened: as §1
# GlcA(b1-3)GlcNAc = molecular target: GlcA(b1-3)GlcNAc
# Procedure, shortened: as §1
# GlcA(b1-6)Gal = molecular target: GlcA(b1-6)Gal
# Procedure, shortened: as §1
# [6] = molecular target: GlcA3S(b1-3)Gal(b1-4)GlcNAc(b1-2)Man
# Procedure, shortened: as §1
# [7] = molecular target: GlcA3S(b1-3)Gal(b1-4)GlcNAc(b1-3)Gal(b1-4)Glc
# Procedure, shortened: as §1
# [8] = molecular target: GlcNAc(a1-3)Gal(b1-4)GlcNAc
# Procedure, shortened: as §1
# [9] = molecular target: GlcNAc(a1-4)Gal(b1-3)GlcNAc
# Procedure, shortened: as §1
# [10] = molecular target: GlcNAc(a1-4)Gal(b1-4)GalNAc
# Procedure, shortened: as §1
# [11] = molecular target: GlcNAc(a1-4)Gal(b1-4)GlcNAc
# Procedure, shortened: as §1
# [12] = molecular target: GlcNAc(a1-4)Gal(b1-4)GlcNAc(b1-3)Gal(b1-4)Glc
# Procedure, shortened: as §1
# [13] = molecular target: GlcNAc(a1-4)Gal(b1-4)GlcNAc(b1-3)Gal(b1-4)GlcNAc
# Procedure, shortened: as §1
# [14] = molecular target: GlcNAc(a1-4)Gal(b1-4)GlcNAc(b1-3)Gal(b1-4)GlcNAc(b1-3)Gal(b1-4)GlcNAc
# Procedure, shortened: as §1
# [15] = molecular target: GlcNAc(a1-4)Gal(b1-4)GlcNAc(b1-3)Gal(b1-4)[Fuc(a1-3)]GlcNAc(b1-3)Gal(b1-4)[Fuc(a1-3)]GlcNAc
# Procedure, shortened: as §1
# [16] = molecular target: GlcNAc(a1-6)Gal(b1-4)GlcNAc
# Procedure, shortened: as §1
# [17] = molecular target: GlcNAc(b1-2)Gal(b1-3)GalNAc
# Procedure, shortened: as §1
binder,measurement,setting,value
Blon0732mut (Bifidobacterium longum) (protein) MPTSEHKADDATRHLTLIPAPVTLEYTHGTALIGPLVTIEDADQSWETLPIEQLSDELRHRYGVTVLRRRTHGTVISLGLDSRLAHDEYTLDVSESEGIRVRGGGESGLRYGLQTLRQIIGQTSRAIPCLHIQDKPAFAVRAYSLDVTRGRVPTMEFLTWFVDQLALYKYNQFQLYVEHAFAFVELSEAWRGTDPLTAADITYLDEYCARRGIELVPSLATFGHMYMNLRTREHRGLGEFPEDADRPFSFIERMEHHTLNAADPKAHDFASRLIEEYAPLFRSKSFNIGGNETFDLGRGRSAQDAPEAGRDELYAGFVRDLCETLARHGRQPMLWADIALESPRTMDLLPGDITMLNWMYEPQIDESKIQTIATQGRRQFVCPAVRAWSRFFPDYAGAWLNTYHMALAGTKYDAEGMVVTDWGDYGHVNDPRLSVPGLCYGAQNAWNPIEIDAHEMNRRISALVYGDESGRIMDCLARIDSDGVSFPWDLAVQVLELEYGSGTGALNMDVAACMERSSGGKLTLDRTLGCDDARRRMLQWNRERIERRRDCDQVLRDCGDAFAGLDKGGLTAEFLSVMLDGQRLFNELGEELLALADGKDVGSGANRLAADLELWFERYRAQWLSVGRHAELARIAHVVWSLADILRRGAL,glycan array binding signal (z-score),[1],0.115
same,glycan array binding signal (z-score),[2],-0.58
same,glycan array binding signal (z-score),GalNAc(b1-4)GlcNAc6S,-0.46
same,glycan array binding signal (z-score),GalNAc(b1-6)GalNAc,0.083
same,glycan array binding signal (z-score),GalNAc3S(b1-4)GlcNAc,-0.952
same,glycan array binding signal (z-score),GalNAc3S(b1-4)GlcNAc3S,-0.895
same,glycan array binding signal (z-score),[3],0.779
same,glycan array binding signal (z-score),GalNAc4S6S(b1-4)GlcNAc,-0.816
same,glycan array binding signal (z-score),GalNAc6S(b1-4)GlcNAc,-0.056
same,glycan array binding signal (z-score),Glc(a1-4)Glc,0.537
same,glycan array binding signal (z-score),[4],0.754
same,glycan array binding signal (z-score),Glc(a1-6)Glc(a1-6)Glc,-0.5
same,glycan array binding signal (z-score),[5],0.227
same,glycan array binding signal (z-score),Glc(b1-4)Glc,-0.894
same,glycan array binding signal (z-score),Glc(b1-6)Glc,-0.545
same,glycan array binding signal (z-score),GlcA(b1-3)Gal,0.951
same,glycan array binding signal (z-score),GlcA(b1-3)GlcNAc,0.387
same,glycan array binding signal (z-score),GlcA(b1-6)Gal,-0.583
same,glycan array binding signal (z-score),[6],-0.036
same,glycan array binding signal (z-score),[7],1.17
same,glycan array binding signal (z-score),[8],0.225
same,glycan array binding signal (z-score),[9],-0.967
same,glycan array binding signal (z-score),[10],1.02
same,glycan array binding signal (z-score),[11],-0.439
same,glycan array binding signal (z-score),[12],-1.3
same,glycan array binding signal (z-score),[13],-1.34
same,glycan array binding signal (z-score),[14],-1.03
same,glycan array binding signal (z-score),[15],0.239
same,glycan array binding signal (z-score),[16],0.283
same,glycan array binding signal (z-score),[17],0.117

# Part of the list above in another layout:
binder	measurement	setting	value
Blon0732mut (Bifidobacterium longum) (protein) MPTSEHKADDATRHLTLIPAPVTLEYTHGTALIGPLVTIEDADQSWETLPIEQLSDELRHRYGVTVLRRRTHGTVISLGLDSRLAHDEYTLDVSESEGIRVRGGGESGLRYGLQTLRQIIGQTSRAIPCLHIQDKPAFAVRAYSLDVTRGRVPTMEFLTWFVDQLALYKYNQFQLYVEHAFAFVELSEAWRGTDPLTAADITYLDEYCARRGIELVPSLATFGHMYMNLRTREHRGLGEFPEDADRPFSFIERMEHHTLNAADPKAHDFASRLIEEYAPLFRSKSFNIGGNETFDLGRGRSAQDAPEAGRDELYAGFVRDLCETLARHGRQPMLWADIALESPRTMDLLPGDITMLNWMYEPQIDESKIQTIATQGRRQFVCPAVRAWSRFFPDYAGAWLNTYHMALAGTKYDAEGMVVTDWGDYGHVNDPRLSVPGLCYGAQNAWNPIEIDAHEMNRRISALVYGDESGRIMDCLARIDSDGVSFPWDLAVQVLELEYGSGTGALNMDVAACMERSSGGKLTLDRTLGCDDARRRMLQWNRERIERRRDCDQVLRDCGDAFAGLDKGGLTAEFLSVMLDGQRLFNELGEELLALADGKDVGSGANRLAADLELWFERYRAQWLSVGRHAELARIAHVVWSLADILRRGAL	glycan array binding signal (z-score)	[9]	-0.967
same	glycan array binding signal (z-score)	[10]	1.02
same	glycan array binding signal (z-score)	[11]	-0.439
same	glycan array binding signal (z-score)	[12]	-1.3
same	glycan array binding signal (z-score)	[13]	-1.34
same	glycan array binding signal (z-score)	[14]	-1.03
